Record: PubChem BioAssay AID1224830 (NIAID, 2016)

Aim: 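Host factors that control LPS-induced TNF expression in human macrophages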 (primary screen)
Cell system: human THP-1 monocytic leukaemia cells, TNF dual-luciferase reporter clone, PMA-differentiated to macrophage-like cells
Knock-down reagent: siRNA pool against human genes, 50 nM
Time to read-out: LPS for 4 h, given about 3 days after siRNA transfection
Conditions: bacterial LPS (TLR4 ligand), 10 ng/ml
Measured: 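TNF firefly reporter luminescence divided by renilla, normalised to the plate median, then turned into a robust z-score for each replicate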
Scale: TNF reporter robust z-score: higher = stronger TNF reporter response to LPS
Call rule: 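a well is active when its z-score exceeds 2.8 or falls below -1.5; control wells carry no call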
In all, the deposit lists about 18,000 reagents; below is a part drawn at random. About 2,900 of all reagents (16%) count as active. 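Calls are made per well; low scores hint the gene aids the LPS response, high scores that it dampens it.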 Entries without a mark were called inactive. Repeated entries: four replicate wells of each siRNA pool. No sequences are given here.

Gene | TNF reporter robust z-score
LRFN5 | 0.23
LRFN5 | -0.27
LRFN5 | -0.33
LRFN5 | -0.03
TRPM2 | 0.18
TRPM2 | 0.99
TRPM2 | 0.36
TRPM2 | -0.29
GPA33 | -1.77 (active)
GPA33 | -0.8
GPA33 | -0.91
GPA33 | 0.1
COX7A2 | -0.89
COX7A2 | -0.57
COX7A2 | -0.77
COX7A2 | -0.82
ALPK3 | 2.57
ALPK3 | 3.93 (active)
ALPK3 | 2.14
ALPK3 | 1.69
ZNF474 | -0.13
ZNF474 | 0.32
ZNF474 | -0.82
ZNF474 | -0.58
PRODH2 | -0.2
PRODH2 | 1.35
PRODH2 | 0.37
PRODH2 | 0
TMEM231 | 1.13
TMEM231 | 1.17
TMEM231 | 0.04
TMEM231 | 0.86
NTN4 | 0
NTN4 | 0.43
NTN4 | 0.34
NTN4 | 1.5
BPTF | -0.25
BPTF | 0.91
BPTF | -0.23
BPTF | -0.06
RGS13 | 0.41
RGS13 | 1.2
RGS13 | 0.65
RGS13 | 0.77
PHIP | 0.35
PHIP | 0.97
PHIP | 0.47
PHIP | 1.01

Records above marked active, once more:
Gene | TNF reporter robust z-score
GPA33 | -1.77 (active)
ALPK3 | 3.93 (active)
